Experiment: general procedure: Fmoc solid-phase peptide synthesis; Fmoc-Linker-BHA resin (Rink linker); Rink Amide Resin; HBTU and DIC preferred, with HOBt
Settings: whole synthesis

Substance	isolated mass (scale 0.22 mmol, 1:3 TFA) [mg]	isolated yield (scale 0.22 mmol, 1:3 TFA) [%]	also measured
15-Carboxy-pentadecanoyl-Glu-Glu-Ile-Lys[CH3—(OCH2CH2)15—O—(CH2)2—CO]-Pqa-Arg-His-Tyr-Leu-Asn-Trp-Val-Thr-Arg-Gln-(NMe)-Arg-Tyr-NH2 1:3 TFA	43	6	
Ac-Ile-Lys-Pqa-Arg-His-Tyr-Leu-Asn-Trp-Val-Thr-Arg-Gln-(NMe)Arg-Tyr-NH2			isolated mass (scale 0.25 mmol, TFA): 68 mg; isolated yield (scale 0.25 mmol, TFA): 15%
Ac-Ile-Lys[CH3—(OCH2CH2)23—O—(CH2)2—CO]-Pqa-Arg-His-Tyr-Leu-Asn-Trp-Val-Thr-Arg-Gln-(NMe)-Arg-Tyr-NH2 1:3 TFA	66	10	
Ac-Ile-Lys[Palmitoyl-6Ahx-NH—CH2CH2—(OCH2CH2)23—O—(CH2)2—CO]-Pqa-Arg-His-Tyr-Leu-Asn-Trp-Val-Thr-Arg-Gln-(NMe)-Arg-Tyr-NH2 1:3 TFA	58	8	
CH3—(OCH2CH2)2—O—CH2—CO-Ile-Lys(Eicosanoyl-gammaGlu-gammaGlu)-Pqa-Arg-His-Tyr-Leu-Asn-Trp-Val-Thr-Arg-Gln-(NMe)-Arg-Tyr-NH2 1:2 TFA			isolated mass (scale 0.22 mmol, 1:2 TFA): 31 mg; isolated yield (scale 0.22 mmol, 1:2 TFA): 5%
CH3—(OCH2CH2)5—O—CH2—CO-Ile-Lys(Palmitoyl-5AOPS)-Pqa-Arg-His-Tyr-Leu-Asn-Trp-Val-Thr-Arg-Gln-(NMe)-Arg-Tyr-NH2 1:3 TFA	73	13	
CH3—(OCH2CH2)5—O—CH2—CO-Ile-Lys(Palmitoyl-6Ahx)-Pqa-Arg-His-Tyr-Leu-Asn-Trp-Val-Thr-Arg-Gln-(NMe)-Arg-Tyr-NH2 1:3 TFA	70	12	
CH3—(OCH2CH2)7—O—(CH2)2—CO-6Ahx-Ile-Lys-Pqa-Arg-His-Tyr-Leu-Asn-Trp-Val-Thr-Arg-Gln-(NMe)-Arg-Tyr-NH2 1:3 TFA	85	16	
CH3—(OCH2CH2)7—O—(CH2)2—CO-Ile-Lys(Eicosanoyl-gammaGlu-gammaGlu)-Pqa-Arg-His-Tyr-Leu-Asn-Trp-Val-Thr-Arg-Gln-(NMe)-Arg-Tyr-NH2 1:2 TFA			isolated mass (scale 0.22 mmol, 1:2 TFA): 67 mg; isolated yield (scale 0.22 mmol, 1:2 TFA): 11%
CH3—(OCH2CH2)7—O—(CH2)2—CO-Ile-Lys(Palmitoyl-6Ahx)-Pqa-Arg-His-Tyr-Leu-Asn-Trp-Val-Thr-Arg-Gln-(NMe)-Arg-Tyr-NH2 1:3 TFA	143	24	
CH3—(OCH2CH2)11—O—(CH2)2—CO-6Ahx-Ile-Lys-Pqa-Arg-His-Tyr-Leu-Asn-Trp-Val-Thr-Arg-Gln-(NMe)-Arg-Tyr-NH2 1:3 TFA	90	16	
CH3—(OCH2CH2)11—O—(CH2)2—CO-Ile-Lys(Eicosanoyl-gammaGlu-gammaGlu)-Pqa-Arg-His-Tyr-Leu-Asn-Trp-Val-Thr-Arg-Gln-(NMe)-Arg-Tyr-NH2 1:2 TFA			isolated mass (scale 0.22 mmol, 1:2 TFA): 66 mg; isolated yield (scale 0.22 mmol, 1:2 TFA): 11%
CH3—(OCH2CH2)11—O—(CH2)2—CO-Ile-Lys(Palmitoyl-5AOPS)-Pqa-Arg-His-Tyr-Leu-Asn-Trp-Val-Thr-Arg-Gln-(NMe)-Arg-Tyr-NH2 1:3 TFA	83	13	
CH3—(OCH2CH2)11—O—(CH2)2—CO-Ile-Lys(Palmitoyl-6Ahx)-Pqa-Arg-His-Tyr-Leu-Asn-Trp-Val-Thr-Arg-Gln-(NMe)-Arg-Tyr-NH2 1:3 TFA	54	9	
CH3—(OCH2CH2)15—O—(CH2)2—CO-6Ahx-Ile-Lys-Pqa-Arg-His-Tyr-Leu-Asn-Trp-Val-Thr-Arg-Gln-(NMe)-Arg-Tyr-NH2 1:3 TFA	92	15	
CH3—(OCH2CH2)15—O—(CH2)2—CO-Ile-Lys(Eicosanoyl-gammaGlu-gammaGlu)-Pqa-Arg-His-Tyr-Leu-Asn-Trp-Val-Thr-Arg-Gln-(NMe)-Arg-Tyr-NH2			isolated mass (scale 0.22 mmol, TFA): 67 mg; isolated yield (scale 0.22 mmol, TFA): 10%
CH3—(OCH2CH2)15—O—(CH2)2—CO-Ile-Lys(Palmitoyl-5AOPS)-Pqa-Arg-His-Tyr-Leu-Asn-Trp-Val-Thr-Arg-Gln-(NMe)-Arg-Tyr-NH2 1:3 TFA	43.5	6	
CH3—(OCH2CH2)15—O—(CH2)2—CO-Ile-Lys(Palmitoyl-6Ahx)-Pqa-Arg-His-Tyr-Leu-Asn-Trp-Val-Thr-Arg-Gln-(NMe)-Arg-Tyr-NH2 1:3 TFA	67	10	
CH3—(OCH2CH2)23—O—(CH2)2—CO-6Ahx-Ile-Lys-Pqa-Arg-His-Tyr-Leu-Asn-Trp-Val-Thr-Arg-Gln-(NMe)-Arg-Tyr-NH2 1:3 TFA	89	13	
CH3—(OCH2CH2)23—O—(CH2)2—CO-Ile-Lys(Eicosanoyl-Cys{SO3}-Cys {SO3})-Pqa-Cit-His-Tyr-Leu-Asn-Trp-Val-Thr-Arg-Gln-(NMe)-Arg-Tyr-NH2 1:2 TFA			isolated mass (scale 0.22 mmol, 1:2 TFA): 51 mg; isolated yield (scale 0.22 mmol, 1:2 TFA): 6%

Substance	isolated mass (scale 0.22 mmol, 1:3 TFA) [mg]	isolated yield (scale 0.22 mmol, 1:3 TFA) [%]	also measured
CH3—(OCH2CH2)23—O—(CH2)2—CO-Ile-Lys(Eicosanoyl-Cys{SO3}-Cys{SO3})-Pqa-Arg-His-Tyr-Leu-Asn-Trp-Val-Thr-Arg-Gln-(NMe)-Arg-Tyr-NH2 1:3 TFA	28.4	4	
CH3—(OCH2CH2)23—O—(CH2)2—CO-Ile-Lys(Eicosanoyl-gammaGlu-gammaGlu)-Pqa-Arg-His-Tyr-Leu-Asn-Trp-Val-Thr-Arg-Gln-(NMe)-Arg-Tyr-NH2 1:2 TFA			isolated mass (scale 0.22 mmol, 1:2 TFA): 34 mg; isolated yield (scale 0.22 mmol, 1:2 TFA): 4.4%
CH3—(OCH2CH2)23—O—(CH2)2—CO-Ile-Lys(Palmitoyl-5AOPS)-Pqa-Arg-His-Tyr-Leu-Asn-Trp-Val-Thr-Arg-Gln-(NMe)-Arg-Tyr-NH2 1:3 TFA	63	8	
CH3—(OCH2CH2)23—O—(CH2)2—CO-Ile-Lys(Palmitoyl-5AOPS)-Pqa-Cit-His-Tyr-Leu-Asn-Trp-Val-Thr-Arg-Gln-(NMe)-Arg-Tyr-NH2 1:2 TFA			isolated mass (scale 0.22 mmol, 1:2 TFA): 76 mg; isolated yield (scale 0.22 mmol, 1:2 TFA): 10%
CH3—(OCH2CH2)23—O—(CH2)2—CO-Ile-Lys(Palmitoyl-6Ahx)-Pqa-Arg-His-Tyr-Leu-Asn-Trp-Val-Thr-Arg-Gln-(NMe)-Arg-Tyr-NH2 1:3 TFA	40	6	
CH3—(OCH2CH2)23—O—(CH2)2—CO-Ile-Lys(Palmitoyl-Cys{SO3}-Cys{SO3})-Pqa-Arg-His-Tyr-Leu-Asn-Trp-Val-Thr-Arg-Gln-(NMe)-Arg-Tyr-NH2 1:3 TFA	44	6	
Eicosanoyl-6Ahx-Ile-Lys[CH3—(OCH2CH2)23—O—(CH2)2—CO]-Pqa-Arg-His-Tyr-Leu-Asn-Trp-Val-Thr-Arg-Gln-(NMe)-Arg-Tyr-NH2 1:3 TFA	86	12	
Eicosanoyl-6Ahx-Ile-Lys[CH3—(OCH2CH2)23—O—(CH2)2—CO]-Pqa-Cit-His-Tyr-Leu-Asn-Trp-Val-Thr-Arg-Gln-(NMe)-Arg-Tyr-NH2 1:2 TFA			isolated mass (scale 0.22 mmol, 1:2 TFA): 64 mg; isolated yield (scale 0.22 mmol, 1:2 TFA): 9%
Eicosanoyl-Cys(SO3)-Cys(SO3)-Glu-Ile-Lys[CH3—(OCH2CH2)23—O—(CH2)2—CO]-Pqa-Cit-His-Tyr-Leu-Asn-Trp-Val-Thr-Arg-Gln-(NMe)-Arg-Tyr-NH2 1:3 TFA	37	4	
Eicosanoyl-Glu-Glu-(D)alloIle-Lys[CH3—(OCH2CH2)23—O—(CH2)2—CO]-Pqa-Arg-His-Tyr-Leu-Asn-Trp-Val-Thr-Arg-Gln-(NMe)-Arg-Tyr-NH2 1:3 TFA	90	12	
Eicosanoyl-Glu-Glu-Ile-Lys[CH3—(OCH2CH2)7—O—(CH2)2—CO]-Pqa-Cit-His-Tyr-Leu-Asn-Trp-Val-Thr-Arg-Gln-(NMe)-Arg-Tyr-NH2 1:2 TFA			isolated mass (scale 0.22 mmol, 1:2 TFA): 53 mg; isolated yield (scale 0.22 mmol, 1:2 TFA): 8%
Eicosanoyl-Glu-Glu-Ile-Lys[CH3—(OCH2CH2)11—O—(CH2)2—CO]-Pqa-Arg-His-Tyr-His-Asn-Trp-Val-Thr-Arg-Gln-Arg-Tyr-NH2 1:3 TFA			isolated mass (scale 0.25 mmol, 1:3 TFA): 283 mg; isolated yield (scale 0.25 mmol, 1:3 TFA): 43%
Eicosanoyl-Glu-Glu-Ile-Lys[CH3—(OCH2CH2)11—O—(CH2)2—CO]-Pqa-Arg-His-Tyr-Leu-Asn-Trp-Val-Thr-Arg-Gln-(NMe)-Arg-Tyr-NH2 1:3 TFA	18	3	
Eicosanoyl-Glu-Glu-Ile-Lys[CH3—(OCH2CH2)11—O—(CH2)2—CO]-Pqa-Cit-His-Tyr-Leu-Asn-Trp-Val-Thr-Arg-Gln-(NMe)-Arg-Tyr-NH2 1:2 TFA			isolated mass (scale 0.22 mmol, 1:2 TFA): 32 mg; isolated yield (scale 0.22 mmol, 1:2 TFA): 5%
Eicosanoyl-Glu-Glu-Ile-Lys[CH3—(OCH2CH2)15—O—(CH2)2—CO]-Pqa-Arg-His-Tyr-His-Asn-Trp-Val-Thr-Arg-Gln-Arg-Tyr-NH2 1:3 TFA			isolated mass (scale 0.25 mmol, 1:3 TFA): 340 mg; isolated yield (scale 0.25 mmol, 1:3 TFA): 49%
Eicosanoyl-Glu-Glu-Ile-Lys[CH3—(OCH2CH2)15—O—(CH2)2—CO]-Pqa-Arg-His-Tyr-Leu-Asn-Trp-Val-Thr-Arg-Gln-(NMe)-Arg-Tyr-NH2 1:3 TFA	17	2	
Eicosanoyl-Glu-Glu-Ile-Lys[CH3—(OCH2CH2)15—O—(CH2)2—CO]-Pqa-Cit-His-Tyr-Leu-Asn-Trp-Val-Thr-Arg-Gln-(NMe)-Arg-Tyr-NH2 1:2 TFA			isolated mass (scale 0.22 mmol, 1:2 TFA): 32 mg; isolated yield (scale 0.22 mmol, 1:2 TFA): 5%
Eicosanoyl-Glu-Glu-Ile-Lys[CH3—(OCH2CH2)23—O—(CH2)2—CO]-Pqa-Arg-His-Tyr-Leu-Asn-Trp-Val-Thr-Arg-Gln-(NMe)-Arg-Tyr-NH2 1:3 TFA	53	7	
Eicosanoyl-Glu-Glu-Ile-Lys[CH3—(OCH2CH2)23—O—(CH2)2—CO]-Pqa-Cit-His-Tyr-Leu-Asn-Trp-C-alphaMeVal-Thr-Arg-Gln-(NMe)-Arg-Tyr-NH2 1:2 TFA			isolated mass (scale 0.25 mmol, 1:2 TFA): 70 mg; isolated yield (scale 0.25 mmol, 1:2 TFA): 9%
Eicosanoyl-Glu-Glu-Ile-Lys[CH3—(OCH2CH2)23—O—(CH2)2—CO]-Pqa-Cit-His-Tyr-Leu-Asn-Trp-Val-Thr-Arg(CO)-Gln-(NMe)-Arg-Tyr-NH2 1:2 TFA			isolated mass (scale 0.25 mmol, 1:2 TFA): 54 mg; isolated yield (scale 0.25 mmol, 1:2 TFA): 7%

Source: patent publication US20110172147A1 (priority 2009, published 2011)
